Among all 360,000 compounds or so, about 7,500 (2.1%) were called active. This list was built around the results that the source calls inconclusive (neither active nor inactive); the mix of calls is not that of the screen. Calls follow the shape of the dose curve; as a rule, active = well fitted inhibition curve with a large enough effect; inconclusive = small, poorly fitted or top-dose-only effect, or effect the other way; inactive = flat fitted curve, though single readings scatter. Where the call is inconclusive, the potency comes from a doubtful curve fit.
Assay: Nrf2 qHTS screen for inhibitors; also: nearly all actives have a fitted effect of over 60% in size
Conditions: A549 ARE-Fluc reporter, luciferase luminescence, 18-24 h; activity change, negative = inhibition: at 46 µM (top of the series)
Procedure, shortened: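 Nrf2 function is reported as luminescence of an ARE-controlled luciferase in A549 cells. Compounds were tested at several concentrations, and a CellTiter-Fluor read on the same wells flagged cytotoxicity.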
% is scaled to controls: 0 for no effect and ±100 for the full control effect; potency is read from the fitted curve at half-maximal effect.

Compound	Potency	activity change, negative = inhibition
Cc1c(C(=O)Nc2cccc(Cl)c2)c2ccccn2c1CCc1ccncc1	inconclusive: 32.6 µM [falling, single point]	
Cc1ccccc1Nc1nc(N)nc(CN(C)c2ccccc2)n1	inconclusive: 6.51 µM [falling, single point]	
CN(C)c1ccc(C=c2c3ccccc3n3c2cc(-c2ccccc2)[n+]3C)cc1	active: 5.8 µM	
CN(C(=O)c1cccc(COc2ccc(Cl)cc2Cl)c1)c1ccccc1	inconclusive: 29.1 µM [falling, single point]	
CCOc1ccc(NC(=O)Cn2c(=O)n(Cc3nc(-c4ccccc4)no3)c(=O)c3cc4c(cc32)OCO4)cc1		inactive: 15.1%
COc1ccc(-c2cc3ncc(C(C)=O)c(C)n3n2)cc1	inconclusive: 1.84 µM [activator, partial curve, poor fit]	
COC(=O)[C@@H]1[C@H](CCc2ccccc2)NC(=O)N(Cc2ccccc2)[C@@H]1C		inactive: -26.3%
CC(=O)c1ccc(NC(=O)c2nc(-c3ccccc3)n(-c3ccc(Cl)cc3)n2)cc1		inactive: -28.4%
O=C1C=CC(=Nc2ccc3c(c2)Cc2ccccc2-3)O1	inconclusive: 29.1 µM [activator, single point]	
Cc1ccccc1-c1nc(CS(=O)(=O)CC(=O)Nc2cc(F)ccc2F)c(C)o1	inconclusive: 29.1 µM [falling, single point]	
COc1ccc(C(=O)NCCSCc2ccccc2)cc1OC	inconclusive: 14.6 µM [falling, partial curve]	
COCCCNC(=O)CNC(=O)c1nn(-c2ccc(OC)c(Cl)c2)c(=O)c2ccccc12	inconclusive: 16.4 µM [falling, single point]	
O=C(CNC(=O)c1ccccc1F)N/N=C/c1cccs1		inactive: 2.98%
CC1CCc2c(C(=O)NCc3ccccn3)csc2C1 (centres undefined)	inconclusive: 20.6 µM [activator, partial curve, poor fit]	
Cc1ccc(C)c(OCC(O)CN2CCCCC2C)c1 (centres undefined)	inconclusive: 16.4 µM [activator, single point]	
Cc1ccc(NS(=O)(=O)c2cc3c(cc2C)NC(=O)CO3)cc1C		inactive: -16.4%
Cc1[nH]c2ccccc2c1CN1CCC(Cc2ccccc2)CC1		inactive: -2.72%
Cc1cc(C(=O)Nc2cccnc2Cl)on1	inconclusive: 0.411 µM [falling, full curve]	
C/C(=N\NC(=O)c1ccc(C)cc1C)c1ccc2c(c1)Nc1ccccc1S2	inconclusive: 18.4 µM [falling, single point]	
Cc1cc(C)c2oc(-c3cccc(N)c3)nc2c1	inconclusive: 20.6 µM [activator, partial curve]	
CSc1ccc(COC(=O)c2cc([N+](=O)[O-])ccc2N2CCOCC2)cc1	inconclusive: 0.058 µM [activator, partial curve, poor fit]	
CCCCN(C)CCCNC(=O)Cn1ncc2c3ccccc3n(Cc3ccccc3F)c2c1=O	inconclusive: 23.1 µM [falling, single point]	

Compound	Potency	activity change, negative = inhibition
Cc1noc(-c2ccc(N3CCC(C)CC3)c([N+](=O)[O-])c2)n1	inconclusive: 5.17 µM [activator, partial curve, poor fit]	
Cc1ccc(-c2noc(-c3ccccc3F)n2)cc1	inconclusive: 10.3 µM [activator, partial curve]	
O=S(=O)(c1ccccc1)N1N=C(c2ccc(Cl)cc2)CC1c1ccco1 (centres undefined)	inconclusive: 29.1 µM [falling, single point]	
CCOC(=O)c1sc(=S)n(C)c1NC(=O)c1cccc(Br)c1	inconclusive: 25.9 µM [falling, partial curve, poor fit]	
COc1cccc(CNC(=O)CCS(=O)(=O)c2ccc3c(c2)NC(=O)C(C)S3)c1 (centres undefined)	inconclusive: 23.1 µM [falling, partial curve, poor fit]	
CC1CCCCC1NC(=S)NC(=O)c1sc2ccccc2c1Cl (centres undefined)		inactive: -11%
CCOC(=O)c1c(N)sc2c1CCCC2=O	inconclusive: 18.4 µM [falling, partial curve, poor fit]	
Cc1nn(CC(=O)Nc2ccc3c(c2)nc(CCN2CCCCC2)n3C)c(=O)c2ccccc12	inconclusive: 18.4 µM [falling, partial curve]	
O=C(c1ccc(Cl)cc1)N1CCN(CCOc2ccccc2)CC1	inconclusive: 32.6 µM [falling, partial curve, poor fit]	
CCOc1nonc1C(=N)/C(C(C)=O)=C(\C)O	inconclusive: 29.1 µM [falling, single point]	
CC1CCN(S(=O)(=O)c2ccc3nc(Nc4ccc(C#N)cc4)ccc3c2)CC1	inconclusive: 29.1 µM [falling, single point]	
COc1ccccc1N1CCN(C(=S)Nc2ccc(S(=O)(=O)N3CCOCC3)cc2)CC1	inconclusive: 16.4 µM [falling, single point]	
O=C(NCC(c1cccnc1)N1CCc2ccccc2C1)C(=O)Nc1ccccc1 (centres undefined)	inconclusive: 6.51 µM [activator, partial curve]	
COC(=O)c1ccc(CSc2nc3c(cnn3-c3ccc(F)cc3)c(=O)[nH]2)o1	inconclusive: 18.4 µM [falling, partial curve]	
COc1ccccc1N1CCN(S(=O)(=O)c2c(C)nc3sc(C)c(C)n3c2=O)CC1		inactive: -17.5%
c1ccc2oc(NC3=NCN(C4CCCCC4)CN3)nc2c1	inconclusive: 18.4 µM [activator, partial curve]	
CNS(=O)(=O)c1ccc2c3c(cccc13)C(=O)N2	inconclusive: 11.6 µM [falling, partial curve, poor fit]	
O=C(Nc1cccc(F)c1)c1ccc(S(=O)(=O)N2CCOCC2)cc1	inconclusive: 32.6 µM [falling, partial curve, poor fit]	
O=C(O)c1cc(NCc2cc(O)ccc2O)ccc1O		inactive: -15.1%
CCOc1ccc(Nc2nc(N)nc(CN3CCN(c4ccccc4F)CC3)n2)cc1	inconclusive: 25.9 µM [falling, single point]	
CN(CC(=O)Nc1ccc(Cl)c(C(F)(F)F)c1)C(=O)c1ccccc1SCC(=O)N1CCCC1	inconclusive: 20.6 µM [falling, single point]	
CC(CN1CCOCC1)OC(=O)c1ccc2c(c1)OCCO2 (centres undefined)	inconclusive: 9.2 µM [activator, partial curve]	

Compound	Potency	activity change, negative = inhibition
Cc1ccc(NC(=O)CCNC(=O)Cn2cnc3ccccc3c2=O)cc1F	inconclusive: 20.6 µM [activator, single point]	
Cc1ccc(NC(=O)CN2CCCC2c2cccs2)cc1S(=O)(=O)N1CCCCC1 (centres undefined)	active: 20.6 µM	
COc1ccc(Cn2ccc3nc(C)c(C(=O)Nc4ccc(OC(F)(F)F)cc4)cc3c2=O)cc1	inconclusive: 29.1 µM [falling, single point]	
O=C1COc2ccc(C(=O)COc3ccc(Cl)cc3Br)cc2N1	inconclusive: 23.1 µM [falling, single point]	
CCCCC(=O)OC1=C(C(=O)c2ccccc2)N(CC)S(=O)(=O)c2ccccc21	inconclusive: 16.4 µM [falling, single point]	
COC(=O)CN1C(=S)N(c2ccc(OC)cc2)C(=O)/C1=C/c1ccc(N2CCOCC2)cc1	inconclusive: 18.4 µM [falling, partial curve, poor fit]	
Cn1c(=O)n(Cc2ccc(F)cc2)c(=O)c2c1nc1n2CCCN1C1CCCCC1	inconclusive: 8.2 µM [falling, partial curve, poor fit]	
Cc1cc(NC(=O)Cn2nnc3sc4c(c3c2=O)CCC(C(C)(C)C)C4)no1 (centres undefined)	inconclusive: 7.31 µM [falling, partial curve]	
Cc1ccn2c(c1)nc(=S)n2C(=O)c1ccccc1	inconclusive: 29.1 µM [falling, single point]	
Cc1ccc(C)c(-c2csc(NC(=O)c3c(C)noc3C)n2)c1	inconclusive: 5.17 µM [falling, full curve, poor fit]	
C=CCN1C(c2ccc(OCC)cc2)=CS/C1=C(\C#N)c1nnc2n1CCCCC2	inconclusive: 23.1 µM [falling, partial curve, poor fit]	
Cc1ccccc1Nc1c(-c2cccnc2)nc2ccccn12	inconclusive: 20.6 µM [activator, partial curve, poor fit]	
Cn1nc(-c2ccc(C(=O)Nc3cccc(C(F)(F)F)c3)cc2)c2ccccc2c1=O	inconclusive: 2.59 µM [falling, full curve, poor fit]	
CCCCC(=O)OC1=C(C(=O)c2ccccc2)N(C)S(=O)(=O)c2ccccc21	inconclusive: 20.6 µM [falling, single point]	
COc1ccc(-c2csc3ncnc(N4CCN(c5ccccc5OC)CC4)c23)cc1	active: 23.1 µM	
Nc1ccc(Cc2nc3cc4ccccc4cc3[nH]2)cc1	inconclusive: 6.51 µM [activator, partial curve]	
O=C(Nc1ccc(F)cc1F)c1cnn(-c2ccc(F)cc2)c1-n1cccc1	inconclusive: 20.6 µM [activator, partial curve, poor fit]	
O=C(NCC1CCCN1S(=O)(=O)c1cccs1)c1ccccc1 (centres undefined)	inconclusive: 32.6 µM [falling, partial curve, poor fit]	
Nc1cnc(Nc2ccc(Br)cc2)nc1N	inconclusive: 11.6 µM [activator, partial curve]	
CCn1c(=O)n(CC)c2cc(S(=O)(=O)N3CCc4ccccc43)ccc21	inconclusive: 20.6 µM [falling, single point]	
